The supplement of paper PMC10849652
This is one part of the list. Residues, ends and D or L forms follow the SMILES beside them. *: point of attachment. Cbz = O=C(OCc1ccccc1)*

The chains behind the UniProt entries cited, without tags or fusion partners. Where a name states a change or a piece, a line headed by the entry shows the natural chain unless it says otherwise.
UniProt Q13315: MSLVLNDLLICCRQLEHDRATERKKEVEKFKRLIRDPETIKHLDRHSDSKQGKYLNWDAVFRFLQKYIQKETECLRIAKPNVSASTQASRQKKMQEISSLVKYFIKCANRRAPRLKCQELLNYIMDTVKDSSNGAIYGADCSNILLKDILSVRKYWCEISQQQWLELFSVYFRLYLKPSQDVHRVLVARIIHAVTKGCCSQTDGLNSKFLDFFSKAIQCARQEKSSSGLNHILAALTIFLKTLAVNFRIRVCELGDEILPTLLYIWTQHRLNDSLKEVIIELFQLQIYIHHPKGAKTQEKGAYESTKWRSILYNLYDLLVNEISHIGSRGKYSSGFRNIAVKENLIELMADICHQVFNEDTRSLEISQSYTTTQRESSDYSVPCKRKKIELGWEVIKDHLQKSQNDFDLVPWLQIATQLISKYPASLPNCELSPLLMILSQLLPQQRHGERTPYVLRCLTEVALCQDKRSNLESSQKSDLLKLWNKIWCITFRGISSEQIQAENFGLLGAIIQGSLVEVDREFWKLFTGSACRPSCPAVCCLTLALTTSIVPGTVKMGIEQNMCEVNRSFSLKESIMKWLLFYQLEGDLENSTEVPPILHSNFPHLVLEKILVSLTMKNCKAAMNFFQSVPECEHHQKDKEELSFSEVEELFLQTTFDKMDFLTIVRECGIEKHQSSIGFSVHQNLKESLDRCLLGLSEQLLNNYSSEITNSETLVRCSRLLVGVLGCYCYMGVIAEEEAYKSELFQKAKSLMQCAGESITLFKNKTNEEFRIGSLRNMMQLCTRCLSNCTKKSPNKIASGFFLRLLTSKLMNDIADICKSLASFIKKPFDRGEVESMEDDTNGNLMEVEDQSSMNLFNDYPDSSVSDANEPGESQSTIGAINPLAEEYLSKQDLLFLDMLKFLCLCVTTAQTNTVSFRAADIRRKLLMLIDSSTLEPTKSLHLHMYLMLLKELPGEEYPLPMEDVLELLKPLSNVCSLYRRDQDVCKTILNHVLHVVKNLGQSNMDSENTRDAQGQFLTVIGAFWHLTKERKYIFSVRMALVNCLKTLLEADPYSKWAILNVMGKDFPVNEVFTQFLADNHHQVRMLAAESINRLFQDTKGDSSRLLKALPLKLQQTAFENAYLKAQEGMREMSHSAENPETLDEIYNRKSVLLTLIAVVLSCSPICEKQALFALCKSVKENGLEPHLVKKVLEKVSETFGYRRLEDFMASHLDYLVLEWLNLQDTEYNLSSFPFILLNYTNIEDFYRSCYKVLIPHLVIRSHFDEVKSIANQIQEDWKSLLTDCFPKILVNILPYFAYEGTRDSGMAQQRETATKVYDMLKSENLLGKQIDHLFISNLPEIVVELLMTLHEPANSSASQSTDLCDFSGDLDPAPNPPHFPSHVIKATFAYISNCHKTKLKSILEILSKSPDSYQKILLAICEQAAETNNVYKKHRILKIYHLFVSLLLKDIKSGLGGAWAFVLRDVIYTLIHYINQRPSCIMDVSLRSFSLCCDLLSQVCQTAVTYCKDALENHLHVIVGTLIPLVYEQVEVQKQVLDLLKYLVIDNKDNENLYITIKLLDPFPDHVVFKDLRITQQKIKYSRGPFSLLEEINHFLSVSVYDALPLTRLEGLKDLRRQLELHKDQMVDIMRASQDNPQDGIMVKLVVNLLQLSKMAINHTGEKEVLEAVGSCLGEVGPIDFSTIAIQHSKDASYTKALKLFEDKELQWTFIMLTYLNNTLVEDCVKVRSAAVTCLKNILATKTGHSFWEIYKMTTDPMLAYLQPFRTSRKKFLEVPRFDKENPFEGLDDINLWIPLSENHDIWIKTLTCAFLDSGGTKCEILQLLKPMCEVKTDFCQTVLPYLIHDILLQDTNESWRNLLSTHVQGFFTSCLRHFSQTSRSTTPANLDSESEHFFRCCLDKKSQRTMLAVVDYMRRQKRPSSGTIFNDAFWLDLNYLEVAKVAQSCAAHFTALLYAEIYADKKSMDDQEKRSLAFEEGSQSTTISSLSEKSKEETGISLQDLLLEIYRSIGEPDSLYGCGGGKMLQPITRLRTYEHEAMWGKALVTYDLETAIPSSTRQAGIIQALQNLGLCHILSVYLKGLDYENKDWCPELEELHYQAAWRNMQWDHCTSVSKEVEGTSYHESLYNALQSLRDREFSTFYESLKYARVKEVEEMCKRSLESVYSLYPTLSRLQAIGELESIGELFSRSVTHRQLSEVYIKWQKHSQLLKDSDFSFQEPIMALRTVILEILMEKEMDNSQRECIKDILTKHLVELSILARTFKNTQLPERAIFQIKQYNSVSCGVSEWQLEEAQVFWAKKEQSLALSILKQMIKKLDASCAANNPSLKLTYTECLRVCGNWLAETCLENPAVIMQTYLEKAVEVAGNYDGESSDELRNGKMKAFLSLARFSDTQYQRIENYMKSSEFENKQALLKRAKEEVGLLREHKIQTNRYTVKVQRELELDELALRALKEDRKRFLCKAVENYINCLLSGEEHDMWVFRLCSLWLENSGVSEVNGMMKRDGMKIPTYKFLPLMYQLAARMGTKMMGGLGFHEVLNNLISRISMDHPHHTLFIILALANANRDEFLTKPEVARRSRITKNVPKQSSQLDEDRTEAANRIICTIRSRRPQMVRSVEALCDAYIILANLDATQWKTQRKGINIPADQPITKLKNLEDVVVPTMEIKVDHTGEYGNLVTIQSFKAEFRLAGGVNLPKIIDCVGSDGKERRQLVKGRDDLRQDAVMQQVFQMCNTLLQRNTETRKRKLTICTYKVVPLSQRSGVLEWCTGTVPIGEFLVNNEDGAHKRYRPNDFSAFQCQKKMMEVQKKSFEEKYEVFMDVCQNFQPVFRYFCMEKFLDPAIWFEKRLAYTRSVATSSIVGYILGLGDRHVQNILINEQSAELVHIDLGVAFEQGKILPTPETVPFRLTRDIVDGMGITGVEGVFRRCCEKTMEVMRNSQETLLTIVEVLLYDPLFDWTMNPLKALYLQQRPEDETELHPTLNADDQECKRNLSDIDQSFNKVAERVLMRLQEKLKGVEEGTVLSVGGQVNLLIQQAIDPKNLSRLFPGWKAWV
UniProt P56378: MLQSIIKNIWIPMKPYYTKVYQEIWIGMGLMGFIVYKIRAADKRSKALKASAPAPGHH
UniProt Q15041, whole entry, looked up: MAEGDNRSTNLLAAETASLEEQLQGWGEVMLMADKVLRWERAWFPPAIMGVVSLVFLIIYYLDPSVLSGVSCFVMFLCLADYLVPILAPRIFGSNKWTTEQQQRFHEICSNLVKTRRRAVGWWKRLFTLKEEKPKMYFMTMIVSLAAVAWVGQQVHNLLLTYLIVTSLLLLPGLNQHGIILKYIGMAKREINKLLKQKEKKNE
UniProt Q96IX5: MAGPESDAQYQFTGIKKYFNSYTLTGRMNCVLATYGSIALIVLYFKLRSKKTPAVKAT
UniProt Q8N3C0, whole entry, looked up: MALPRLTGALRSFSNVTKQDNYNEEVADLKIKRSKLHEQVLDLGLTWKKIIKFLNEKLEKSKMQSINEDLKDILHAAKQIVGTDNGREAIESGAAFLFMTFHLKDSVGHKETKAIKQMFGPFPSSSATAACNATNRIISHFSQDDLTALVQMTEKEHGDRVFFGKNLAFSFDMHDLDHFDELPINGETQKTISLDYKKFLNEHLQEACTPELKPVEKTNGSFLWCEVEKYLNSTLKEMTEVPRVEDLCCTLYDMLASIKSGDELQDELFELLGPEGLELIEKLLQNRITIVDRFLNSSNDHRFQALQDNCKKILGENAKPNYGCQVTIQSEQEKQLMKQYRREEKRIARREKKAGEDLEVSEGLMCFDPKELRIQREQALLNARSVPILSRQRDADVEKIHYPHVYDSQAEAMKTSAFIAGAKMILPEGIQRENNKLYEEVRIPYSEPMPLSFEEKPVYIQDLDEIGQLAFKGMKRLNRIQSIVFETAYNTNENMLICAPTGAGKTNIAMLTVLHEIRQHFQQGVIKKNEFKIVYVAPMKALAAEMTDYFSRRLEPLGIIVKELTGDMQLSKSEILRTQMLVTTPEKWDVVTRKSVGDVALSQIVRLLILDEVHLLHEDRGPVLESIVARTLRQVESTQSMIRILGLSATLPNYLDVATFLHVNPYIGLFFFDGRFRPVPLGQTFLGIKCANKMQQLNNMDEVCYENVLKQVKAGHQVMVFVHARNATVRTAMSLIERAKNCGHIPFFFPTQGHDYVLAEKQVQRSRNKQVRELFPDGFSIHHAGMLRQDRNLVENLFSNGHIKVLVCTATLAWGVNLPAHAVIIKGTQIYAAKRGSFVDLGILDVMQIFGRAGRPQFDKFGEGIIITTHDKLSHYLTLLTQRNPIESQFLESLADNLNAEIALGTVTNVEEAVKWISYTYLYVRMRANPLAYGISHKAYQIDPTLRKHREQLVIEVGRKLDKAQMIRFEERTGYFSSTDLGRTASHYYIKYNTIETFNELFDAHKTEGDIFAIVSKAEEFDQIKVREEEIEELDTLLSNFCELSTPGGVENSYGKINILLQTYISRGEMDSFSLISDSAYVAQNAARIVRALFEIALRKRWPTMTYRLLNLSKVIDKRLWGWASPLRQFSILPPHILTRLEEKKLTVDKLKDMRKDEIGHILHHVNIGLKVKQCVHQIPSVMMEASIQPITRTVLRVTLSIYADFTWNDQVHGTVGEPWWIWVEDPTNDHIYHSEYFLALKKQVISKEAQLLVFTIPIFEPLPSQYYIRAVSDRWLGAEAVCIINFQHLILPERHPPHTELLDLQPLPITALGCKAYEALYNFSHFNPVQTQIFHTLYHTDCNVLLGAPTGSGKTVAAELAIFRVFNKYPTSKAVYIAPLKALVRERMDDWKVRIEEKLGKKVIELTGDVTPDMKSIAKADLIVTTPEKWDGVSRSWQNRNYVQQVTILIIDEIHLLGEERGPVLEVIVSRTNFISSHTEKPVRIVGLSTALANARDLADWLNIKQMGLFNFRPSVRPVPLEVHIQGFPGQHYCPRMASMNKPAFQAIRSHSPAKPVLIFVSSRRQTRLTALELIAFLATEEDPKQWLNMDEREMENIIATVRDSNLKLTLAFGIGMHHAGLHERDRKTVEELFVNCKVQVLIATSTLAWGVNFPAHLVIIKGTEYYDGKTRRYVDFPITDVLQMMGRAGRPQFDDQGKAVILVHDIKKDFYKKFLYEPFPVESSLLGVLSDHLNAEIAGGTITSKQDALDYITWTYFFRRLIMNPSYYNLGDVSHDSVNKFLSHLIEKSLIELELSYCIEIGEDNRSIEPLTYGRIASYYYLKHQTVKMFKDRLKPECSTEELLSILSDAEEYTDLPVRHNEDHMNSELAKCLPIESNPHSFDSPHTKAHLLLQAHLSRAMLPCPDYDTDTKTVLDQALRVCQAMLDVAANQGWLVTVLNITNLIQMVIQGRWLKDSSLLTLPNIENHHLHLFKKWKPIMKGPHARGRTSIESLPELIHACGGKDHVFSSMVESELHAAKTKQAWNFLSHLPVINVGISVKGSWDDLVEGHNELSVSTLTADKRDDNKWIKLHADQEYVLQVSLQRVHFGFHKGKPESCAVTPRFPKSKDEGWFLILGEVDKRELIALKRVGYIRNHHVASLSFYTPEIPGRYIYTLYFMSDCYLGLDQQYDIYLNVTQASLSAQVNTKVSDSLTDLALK
UniProt P36543, whole entry, looked up: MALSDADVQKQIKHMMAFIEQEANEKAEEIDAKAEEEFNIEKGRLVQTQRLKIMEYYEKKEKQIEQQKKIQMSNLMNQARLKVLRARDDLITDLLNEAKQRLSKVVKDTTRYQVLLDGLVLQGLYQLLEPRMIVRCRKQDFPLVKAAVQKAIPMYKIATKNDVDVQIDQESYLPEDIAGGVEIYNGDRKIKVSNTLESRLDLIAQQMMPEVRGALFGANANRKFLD
UniProt P27540, whole entry, looked up: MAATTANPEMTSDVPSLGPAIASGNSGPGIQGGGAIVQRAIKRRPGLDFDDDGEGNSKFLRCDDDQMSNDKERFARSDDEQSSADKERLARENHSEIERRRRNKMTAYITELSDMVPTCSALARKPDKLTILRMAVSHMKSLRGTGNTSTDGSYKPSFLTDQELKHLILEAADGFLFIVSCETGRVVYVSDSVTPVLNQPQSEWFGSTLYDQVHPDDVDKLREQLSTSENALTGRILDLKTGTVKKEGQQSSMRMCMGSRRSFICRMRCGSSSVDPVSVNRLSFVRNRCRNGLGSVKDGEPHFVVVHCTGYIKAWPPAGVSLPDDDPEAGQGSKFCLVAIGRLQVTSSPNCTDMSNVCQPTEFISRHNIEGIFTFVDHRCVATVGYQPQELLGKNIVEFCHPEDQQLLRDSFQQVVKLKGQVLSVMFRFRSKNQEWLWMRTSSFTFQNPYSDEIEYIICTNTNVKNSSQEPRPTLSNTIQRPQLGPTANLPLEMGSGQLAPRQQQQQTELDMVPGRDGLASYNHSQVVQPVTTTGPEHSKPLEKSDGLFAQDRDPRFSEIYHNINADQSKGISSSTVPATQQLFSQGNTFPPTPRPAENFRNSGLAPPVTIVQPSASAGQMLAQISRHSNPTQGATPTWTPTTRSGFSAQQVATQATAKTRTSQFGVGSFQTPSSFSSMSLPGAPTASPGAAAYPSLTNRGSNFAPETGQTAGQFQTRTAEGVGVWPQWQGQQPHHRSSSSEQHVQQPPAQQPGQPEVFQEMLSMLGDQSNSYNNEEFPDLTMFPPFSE

How the values were obtained:
Assay in all cases: log2 fold change, soluble protein after heating vs DMSO (PISA); higher = thermal stabilisation; K562 cells, 10 uM, 30 min; active = over 0.2 and 3.5 SD of the protein, either way, in both replicates (recomputed)
[1] = compound: C1COCCN1CCN2C3=CC=CC=C3N=C2NC(=O)C4=CC(=CC=C4)[N+](=O)[O-] [IRAK-1-4 Inhibitor I]
Procedure, shortened: (§1)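 Thermal stability values are relative to control samples and come from duplicates. They are expressed as log2 fold changes. For measurement, K562 cells (2×10^6 cells/mL) received 10 μM compound for 30 min, and aliquots were heated for 3 min over 48°C-58°C, pooled, and extracted at 4°C in PBS with 0.5% NP-40. Soluble protein, the supernatant after 21,000xg for 90 min, was quantified by TMTpro 16plex LC-MS/MS with equalised channel sums.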

[2] = compound: C=CC(=O)N1CCC[C@@H](n2nc(-c3ccc(Oc4ccccc4)cc3)c3c(N)ncnc32)C1 [ibrutinib]
Procedure, shortened: as §1

[3] = compound: CC(=O)c1cnc2ccc(-c3cc(Cl)c(O)c(Cl)c3)nc2c1N[C@H]1CC[C@H](CN(C)C)CC1
Procedure, shortened: as §1

[4] = compound: CC(C)(C)Cn1c(N)nc2ccc(-c3[nH]c(C(C)(C)C)nc3-c3ccc(F)cc3)nc21 [ralimetinib]
Procedure, shortened: as §1

[5] = compound: CC(C)(O)CC(=O)NCCn1ccc2ncnc(Nc3ccc(Oc4cccc(C(F)(F)F)c4)c(Cl)c3)c21
Procedure, shortened: as §1

[6] = compound: CC(C)C1=C2N=C(C=C(N2N=C1)NCC3=CC=CC=C3)NCCCCCCN
Procedure, shortened: as §1

[7] = compound: CC(C)C[C@@H](C=O)NC(=O)[C@H](CC(C)C)NC(=O)[C@H](CC(C)C)NC(=O)OCc1ccccc1
Procedure, shortened: as §1

[8] = compound: CC(C)N(C[C@H]1O[C@@H](n2cnc3c(N)ncnc32)[C@H](O)[C@@H]1O)[C@H]1C[C@@H](CCc2nc3cc(C(C)(C)C)ccc3[nH]2)C1 [pinometostat]
Procedure, shortened: as §1

[9] = compound: CC1=C(C(CC(=O)N1)C2=CC=C(C=C2)C(F)(F)F)C(=O)NC3=C(C=C4C(=C3)C=NN4)F
Procedure, shortened: as §1

[10] = compound: CC1=C(C2=C(C=C1)C(=O)C3=CC=CC=C3N2CCCN)C
Procedure, shortened: as §1

[11] = compound: CC1=C(C=C(C=C1)NC(=O)C2=CC(=CC=C2)C(C)(C)C#N)NC3=CC4=C(C=C3)N=CN(C4=O)C
Procedure, shortened: as §1

[12] = compound: CC1=C(C=C(C=C1)NC(=O)C2=CC(=CC=C2)N(C)C)NC(=O)C3=CC=C(C=C3)O
Procedure, shortened: as §1

[13] = compound: CC1=CC=C(C=C1)SC2=C3C=C(SC3=CN=C2)C(=O)N
Procedure, shortened: as §1

[14] = compound: CC1=NC(=CC=C1)C2=C(N=C(N2)C(C)(C)C)C3=CC4=NC=CN=C4C=C3
Procedure, shortened: as §1

[15] = compound: CCCCN(Cc1ccc(C(=O)NO)cc1)C(=O)Nc1ccccc1 [Nexturastat A]
Procedure, shortened: as §1

[16] = compound: CCCS(=O)(=O)Nc1ccc(F)c(C(=O)c2c[nH]c3ncc(-c4ccc(Cl)cc4)cc23)c1F [vemurafenib]
Procedure, shortened: as §1

[17] = compound: CCCS(=O)(=O)Nc1ccc(F)c(C(=O)c2c[nH]c3ncc(Cl)cc23)c1F
Procedure, shortened: as §1

[18] = compound: CCCc1cc(C)[nH]c(=O)c1CNC(=O)c1cc(-c2ccnc(N3CCN(C)CC3)c2)cc2c1cnn2C(C)C
Procedure, shortened: as §1

[19] = compound: CCN(CC)Cc1ccc2cc(COC(=O)Nc3ccc(C(=O)NO)cc3)ccc2c1 [givinostat]
Procedure, shortened: as §1

[20] = compound: CCN(CCCOc1ccc2c(Nc3cc(CC(=O)Nc4cccc(F)c4)[nH]n3)ncnc2c1)CCOP(=O)(O)O [barasertib]
Procedure, shortened: as §1

Measured: log2 fold change

ATG2A isoform 3 (UniProt Q2TAZ0)
inactive: [1] 0.047 | [2] -0.018 | [3] -0.023 | [4] -0.017 | [5] -0.046 | [6] 0.01 | [7] 0.031 | [8] 0.028 | [9] 0.017 | [10] 0.056 | [11] -0.013 | [12] 0.018 | [13] 0.027 | [14] -0.052 | [15] -0.057 | [16] -0.04 | [17] 0.034 | [18] -0.06 | [19] 0.007 | [20] 0.037

ATM (UniProt Q13315)
inactive: [1] 0.039 | [2] 0.034 | [3] 0.119 | [4] -0.036 | [5] -0.08 | [6] -0.048 | [7] 0.028 | [8] 0.056 | [9] -0.042 | [10] 0.105 | [11] -0.049 | [12] -0.055 | [13] 0.131 | [14] -0.032 | [15] -0.027 | [16] 0.009 | [17] 0.002 | [18] 0.05 | [19] 0.019 | [20] 0.004

ARPC5L (UniProt Q9BPX5)
inactive: [1] 0.02 | [2] -0.006 | [3] 0.014 | [4] -0.08 | [5] -0.008 | [6] 0.171 | [7] -0.006 | [8] -0.088 | [9] -0.015 | [10] 0.004 | [11] -0.055 | [12] -0.013 | [13] -0.022 | [14] 0 | [15] 0.04 | [16] 0.067 | [17] 0.004 | [18] -0.01 | [19] -0.008 | [20] 0.048

ARMC6 (UniProt Q6NXE6)
inactive: [1] -0.185 | [2] -0.018 | [3] 0.17 | [4] 0.28 | [5] -0.002 | [6] -0.241 | [7] 0.266 | [8] 0.417 | [9] 0.356 | [10] -0.023 | [11] 0.069 | [12] 0.068 | [13] -0.013 | [14] -0.078 | [15] 0.361 | [16] 0.016 | [17] 0.096 | [18] 0.072 | [19] 0.14 | [20] 0.048

ATP5MPL (UniProt P56378)
inactive: [1] 0.08 | [2] -0.02 | [3] -0.018 | [4] -0.023 | [5] -0.006 | [6] 0.125 | [7] -0.05 | [8] 0.118 | [9] -0.006 | [10] 0.046 | [11] 0.028 | [12] -0.036 | [13] 0 | [14] -0.027 | [15] 0.034 | [16] -0.027 | [17] 0.001 | [18] 0.004 | [19] -0.055 | [20] -0.01

Two records picked at random from the list so far, as already listed:
ATP5MPL (UniProt P56378)
inactive: [1] 0.08 | [2] -0.02 | [3] -0.018 | [4] -0.023 | [5] -0.006 | [6] 0.125 | [7] -0.05 | [8] 0.118 | [9] -0.006 | [10] 0.046 | [11] 0.028 | [12] -0.036 | [13] 0 | [14] -0.027 | [15] 0.034 | [16] -0.027 | [17] 0.001 | [18] 0.004 | [19] -0.055 | [20] -0.01

ATM (UniProt Q13315)
inactive: [1] 0.039 | [2] 0.034 | [3] 0.119 | [4] -0.036 | [5] -0.08 | [6] -0.048 | [7] 0.028 | [8] 0.056 | [9] -0.042 | [10] 0.105 | [11] -0.049 | [12] -0.055 | [13] 0.131 | [14] -0.032 | [15] -0.027 | [16] 0.009 | [17] 0.002 | [18] 0.05 | [19] 0.019 | [20] 0.004

The listing continues:

ATE1 isoform 2 (UniProt O95260)
inactive: [1] 0.068 | [2] -0.081 | [3] 0 | [4] -0.037 | [5] 0.039 | [6] 0.013 | [7] 0.015 | [8] -0.103 | [9] -0.029 | [10] -0.034 | [11] 0.02 | [12] 0.004 | [13] 0.059 | [14] 0.026 | [15] -0.016 | [16] 0.02 | [17] 0.108 | [18] -0.021 | [19] -0.05 | [20] 0.072

ARL6IP1 (UniProt Q15041)
inactive: [1] -0.033 | [2] 0.062 | [3] 0.058 | [4] -0.052 | [5] -0.034 | [6] 0.079 | [7] -0.072 | [8] -0.029 | [9] 0.058 | [10] -0.004 | [11] -0.008 | [12] 0.039 | [13] 0.532 | [14] 0.011 | [15] -0.033 | [16] -0.065 | [17] -0.038 | [18] -0.01 | [19] 0.006 | [20] 0.024

ATPAF1 (UniProt Q5TC12)
inactive: [1] 0.032 | [2] 0.026 | [3] 0.053 | [4] -0.054 | [5] -0.025 | [6] -0.057 | [7] 0.062 | [8] 0.023 | [9] 0.002 | [10] -0.019 | [11] 0.017 | [12] 0 | [13] 0.081 | [14] -0.032 | [15] 0.034 | [16] 0.025 | [17] 0.089 | [18] 0.012 | [19] -0.042 | [20] 0.014

ATP5MD (UniProt Q96IX5)
inactive: [1] 0.078 | [2] 0.107 | [3] 0 | [4] -0.038 | [5] 0.024 | [6] 0.051 | [7] 0.014 | [8] 0.016 | [9] 0.061 | [10] 0.028 | [11] 0.041 | [12] -0.073 | [13] 0.021 | [14] 0.063 | [15] -0.055 | [16] -0.071 | [17] -0.004 | [18] 0.133 | [19] -0.11 | [20] 0.05

ASCC3 (UniProt Q8N3C0)
inactive: [1] -0.092 | [2] 0.057 | [3] 0.008 | [4] 0.089 | [5] 0.01 | [6] 0.007 | [7] 0.216 | [8] 0.08 | [9] -0.082 | [10] 0 | [11] -0.155 | [12] 0.046 | [13] -0.079 | [14] -0.282 | [15] 0.472 | [16] -0.164 | [17] 0.005 | [18] -0.27 | [19] 0.196 | [20] -0.168

ATP6V1E1 (UniProt P36543)
inactive: [1] -0.007 | [2] -0.008 | [3] -0.071 | [4] 0.046 | [5] 0.017 | [6] -0.069 | [7] 0.024 | [8] 0.007 | [9] -0.007 | [10] 0.109 | [11] -0.028 | [12] -0.017 | [13] -0.05 | [14] -0.017 | [15] 0.052 | [16] 0.028 | [17] -0.015 | [18] 0.084 | [19] 0.017 | [20] 0.015

ATG13 isoform 5 (UniProt O75143)
inactive: [1] 0 | [2] 0.055 | [3] -0.051 | [4] 0.051 | [5] -0.005 | [6] -0.03 | [7] 0.116 | [8] 0.001 | [9] 0.003 | [10] 0.005 | [11] -0.015 | [12] -0.024 | [13] 0.057 | [14] 0.006 | [15] 0.063 | [16] -0.003 | [17] -0.012 | [18] -0.012 | [19] 0.018 | [20] 0.028

ARPC3 (UniProt O15145)
inactive: [1] 0.032 | [2] 0.024 | [3] -0.002 | [4] -0.027 | [5] -0.009 | [6] 0.078 | [7] 0.049 | [8] -0.048 | [9] -0.061 | [10] 0.049 | [11] -0.03 | [12] -0.015 | [13] 0.004 | [14] 0.004 | [15] -0.097 | [16] 0.039 | [17] -0.002 | [18] -0.108 | [19] -0.01 | [20] 0.024

ARNT (UniProt P27540)
inactive: [1] 0.046 | [2] -0.039 | [3] 0.066 | [4] 0.067 | [5] -0.024 | [6] -0.032 | [7] 0.036 | [8] 0.112 | [9] 0.051 | [10] 0.093 | [11] -0.021 | [12] 0.03 | [13] 0.085 | [14] 0.026 | [15] 0.085 | [16] -0.044 | [17] 0.031 | [18] -0.067 | [19] 0.024 | [20] 0.082

ATP2A2 (UniProt P16615)
inactive: [1] 0.017 | [2] -0.033 | [3] -0.025 | [4] -0.044 | [5] -0.009 | [6] -0.039 | [7] -0.018 | [8] -0.03 | [9] -0.027 | [10] 0.028 | [11] 0.02 | [12] 0.015 | [13] -0.012 | [14] 0.012 | [15] -0.048 | [16] 0.019 | [17] 0.024 | [18] -0.028 | [19] 0.003 | [20] 0.019

ARL8A (UniProt Q96BM9)
inactive: [1] 0.093 | [2] 0.037 | [3] 0.041 | [4] -0.058 | [5] -0.016 | [6] -0.053 | [7] 0.044 | [8] 0.012 | [9] -0.008 | [10] -0.119 | [11] 0.084 | [12] 0.031 | [13] 0.036 | [14] 0.033 | [15] -0.003 | [16] -0.047 | [17] -0.046 | [18] 0.409 | [19] 0.095 | [20] 0.025
